Measured data: PubChem BioAssay AID504804 (Drosophila RNAi Screening Center, 2011)
In all, the deposit lists about 19,000 reagents; this is a random part of those with a known target gene and a result. In the full data, 47 (0.25%) got an active call. 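Signals are raw, not normalised; exact z-scores behind calls not deposited; actives needed confirmation, so some wells reaching 2 SD are inactive.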 A number with no mark means an inactive call. Names joined by + are all predicted targets of the reagent.

Assay: 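dsRNAs that improve Kc cell survival under doxorubicin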 (primary screen)
System: Drosophila Kc cells
Reagents: long dsRNA against Drosophila genes, 0.5 µg dsRNA per well
Time to read-out: 96 h (48 h knock-down, then 48 h drug)
Treatment: doxorubicin 5 µg/ml for 48 h, added 48 h after dsRNA
Measured: 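Luminescent ATP counts per replicate, not normalised, reflecting viable cells after 48 h dsRNA knock-down followed by 48 h of 5 µg/ml doxorubicin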
Scale: raw ATP luminescence: higher = more viable cells, protection from doxorubicin
Rule for the call: 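z-score of 2 or more over plate mean in both duplicates, retained only when retests and separate dsRNAs confirm the protection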

gene | dsRNA | SD above plate mean | raw ATP luminescence, replicate 1 | raw ATP luminescence, replicate 2
cic (GeneID 53560) | DRSC14276 | – | 21750 | 20150
cic (GeneID 53560) | DRSC15708 | – | 22890 | 25120
cic (GeneID 53560) | DRSC16918 | – | 43170 | 42670
cic (GeneID 53560) | DRSC21243 | – | 3.12e5 | 2.90e5
gsb (GeneID 38005) | DRSC04692 | – | 39880 | 52227
Egfrap (GeneID 3885637) | DRSC09963 | – | 70293 | 74230
Egfrap (GeneID 3885637) | DRSC09964 | – | 68677 | 87077
CG1074 (GeneID 40564) | DRSC12143 | – | 21290 | 22560
Best1 (GeneID 53431) | DRSC16909 | – | 59947 | 42480
CG32812 (GeneID 31074) | DRSC18478 | – | 62260 | 58900
rut (GeneID 32406) | DRSC20367 | – | 83420 | 72670
Ir68b (GeneID 39378) | DRSC10251 | – | 98923 | 74200
CG9119 (GeneID 38124) | DRSC08620 | – | 67870 | 62377
CG8736 (GeneID 35841) | DRSC07255 | – | 29823 | 54530
CG2187 (GeneID 43743) | DRSC15425 | – | 44840 | 49700
mtd (GeneID 45467) | DRSC12131 | – | 63190 | 29320
mtd (GeneID 45467) | DRSC12380 | – | 65987 | 28007
mtd (GeneID 45467) | DRSC12381 | – | 60650 | 59397
Gyc76C + CG42637 | DRSC11180 | – | 22383 | 16560
Pomp (GeneID 35342) | DRSC03201 | – | 37850 | 35357
Naxe (GeneID 31944) | DRSC18251 | – | 3.16e5 | 3.32e5
CG8838 (GeneID 33551) | DRSC00712 | – | 98647 | 69730
Hexo2 (GeneID 31808) | DRSC18671 | – | 47070 | 52960
ppk9 (GeneID 37498) | DRSC04134 | – | 46630 | 39183
ppk9 (GeneID 37498) | DRSC04135 | – | 41107 | 50927
TpnC73F (GeneID 39916) | DRSC11307 | – | 45507 | 33443
sip1 (GeneID 44238) | DRSC03609 | – | 28867 | 27893
dbe (GeneID 33269) | DRSC00811 | – | 1.06e5 | 58873
KLHL18 (GeneID 41458) | DRSC15496 | at least 3 SD above plate mean | 1.04e5 | 54990
prom (GeneID 246493) | DRSC04684 | – | 49827 | 44200
CG17121 (GeneID 42721) | DRSC15176 | – | 83120 | 87000
Sgs5 (GeneID 42114) | DRSC16862 | – | 98200 | 1.10e5
tinc (GeneID 42148) | DRSC14798 | – | 49880 | 48900
tinc (GeneID 42148) | DRSC14799 | – | 48120 | 46300
tinc (GeneID 42148) | DRSC16308 | – | 33050 | 34580
tinc (GeneID 42148) | DRSC16309 | – | 58780 | 56580
Hsl (GeneID 37289) | DRSC06028 | – | 66470 | 74703
Nedd8 (GeneID 35151) | DRSC02092 | – | 46910 | 49347
brv1 (GeneID 40116) | DRSC11076 | – | 70503 | 84177
CG12460 (retired record) (GeneID 3355078) | DRSC20970 | – | 1.93e5 | 2.03e5
CG14913 (GeneID 34532) | DRSC02397 | – | 44950 | 72167
CG6163 (GeneID 39274) | DRSC10595 | – | 58337 | 67533
Cpr65Ec (GeneID 38775) | DRSC11025 | – | 73150 | 80557
Osi21 (GeneID 34566) | DRSC02408 | – | 40227 | 48420
CG5104 (GeneID 40280) | DRSC11765 | – | 79577 | 69673
disco (GeneID 32579) | DRSC20323 | – | 3.48e5 | 2.69e5
PolD2 (GeneID 38228) | DRSC08147 | – | 63667 | 54277
CG42820 + CG42819 | DRSC02264 | – | 47187 | 58793
CG42820 + CG42819 | DRSC02265 | – | 42080 | 69627
CG13482 (GeneID 39577) | DRSC10024 | – | 23773 | 25190
hubl (GeneID 246567) | DRSC06825 | – | 53903 | 71693
CG34171 (GeneID 5740474) | DRSC01637 | – | 1.80e5 | 1.86e5
Cad88C (GeneID 41774) | DRSC15486 | – | 73040 | 61030
gcm2 (GeneID 34280) | DRSC03538 | – | 36363 | 74403
spz5 (GeneID 38350) | DRSC08645 | – | 74050 | 60817
CG1636 (GeneID 31766) | DRSC18111 | – | 1.99e5 | 2.81e5
CG6565 (GeneID 34749) | DRSC02970 | – | 1.11e5 | 56283
spin (GeneID 45380) | DRSC07176 | – | 60557 | 72017
Su(var)3-9 (GeneID 41483) | DRSC14484 | – | 47270 | 53237
exu (GeneID 37345) | DRSC07615 | – | 60407 | 55363
CG16894 (GeneID 37280) | DRSC06634 | – | 2.34e5 | 2.12e5
Hr78 (GeneID 40378) | DRSC11866 | – | 17557 | 20967
unc-45 (GeneID 44910) | DRSC15449 | – | 56317 | 58947
CG32945 (GeneID 318261) | DRSC12014 | – | 74567 | 53760
Fbp1 (GeneID 39566) | DRSC11166 | – | 41280 | 30063
CG12991 (GeneID 32734) | DRSC19511 | – | 2.52e5 | 2.61e5
CG18814 (GeneID 59175) | DRSC10347 | – | 41027 | 40353
CG14227 (GeneID 32978) | DRSC19584 | – | 1.68e5 | 2.23e5
CG12105 (GeneID 38190) | DRSC08255 | – | 55370 | 49160
bip1 (GeneID 38891) | DRSC11327 | – | 40813 | 31653
CG9259 (GeneID 35372) | DRSC03174 | – | 61343 | 57430
Jon25Bi (GeneID 33708) | DRSC03434 | – | 26377 | 29983
Idgf6 (GeneID 36868) | DRSC07360 | – | 57157 | 69233
wts (GeneID 43651) | DRSC17096 | – | 11190 | 10730
CG13287 (GeneID 38660) | DRSC09961 | – | 1.22e5 | 99280
Vha44 (GeneID 36826) | DRSC07572 | – | 63233 | 74523
erm (GeneID 326152) | DRSC00700 | – | 1.07e5 | 82543
Or42a (GeneID 35514) | DRSC04912 | – | 46707 | 53283
CG14420 (GeneID 31284) | DRSC17917 | – | 46600 | 47030
Uba3 (GeneID 36539) | DRSC06377 | – | 61733 | 58790
mtsh (GeneID 34141) | DRSC03070 | – | 53437 | 68523
CG18420 (GeneID 2768924) | DRSC01954 | – | 67757 | 72217
unc (GeneID 33093) | DRSC20511 | – | 3.10e5 | 3.34e5
Fbl6 (GeneID 36201) | DRSC06335 | – | 79837 | 77457

12 entries from above, sorted by “raw ATP luminescence, replicate 2”, descending:
gene | dsRNA | SD above plate mean | raw ATP luminescence, replicate 1 | raw ATP luminescence, replicate 2
CG12991 (GeneID 32734) | DRSC19511 | – | 2.52e5 | 2.61e5
CG14227 (GeneID 32978) | DRSC19584 | – | 1.68e5 | 2.23e5
Idgf6 (GeneID 36868) | DRSC07360 | – | 57157 | 69233
unc-45 (GeneID 44910) | DRSC15449 | – | 56317 | 58947
CG9259 (GeneID 35372) | DRSC03174 | – | 61343 | 57430
CG32945 (GeneID 318261) | DRSC12014 | – | 74567 | 53760
CG12105 (GeneID 38190) | DRSC08255 | – | 55370 | 49160
CG18814 (GeneID 59175) | DRSC10347 | – | 41027 | 40353
bip1 (GeneID 38891) | DRSC11327 | – | 40813 | 31653
Fbp1 (GeneID 39566) | DRSC11166 | – | 41280 | 30063
Jon25Bi (GeneID 33708) | DRSC03434 | – | 26377 | 29983
wts (GeneID 43651) | DRSC17096 | – | 11190 | 10730
